Experimental data: PubChem BioAssay AID1159584 (Peter MacCallum Cancer Centre, 2016)

Test: 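Knock-downs that harm CDH1-null cells more than parental MCF10A cells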 (primary screen)
Cell system: human MCF10A breast epithelial cells, parental and CDH1-null
Knock-down reagent: siRNA against human genes
Read-out: 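Cell viability by CellTiter-Glo ATP luminescence, each line scaled to the mean of mock wells across plates, then CDH1-null over parental ratio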
Scale: CDH1-null / parental viability ratio: higher = CDH1-null cells survive relatively better than parental; CDH1-null viability vs mock: higher = more viable CDH1-null cells
This is a random part of about 18,000 reagents tested. Further read-outs or replicates are left out here. Not stated in the record: the amount of reagent, the time to read-out.

no.	gene	CDH1-null / parental viability ratio	CDH1-null viability vs mock (fraction of mock)
1	ADCYAP1R1 (GeneID 117)	1.35	0.88
2	LRIF1 (GeneID 55791)	0.77	0.77
3	MED19 (GeneID 219541)	1.11	0.62
4	GZMM (GeneID 3004)	0.81	0.34
5	CALHM4 (GeneID 221301)	0.71	0.9
6	CCDC183 (GeneID 84960)	0.96	0.78
7	CSTF3 (GeneID 1479)	1.09	0.6
8	PRMT7 (GeneID 54496)	0.83	0.76
9	SCG5 (GeneID 6447)	1.19	1.17
10	PXDC1 (GeneID 221749)	0.83	0.78
11	APMAP (GeneID 57136)	0.92	0.82
12	POPDC1 (GeneID 11149)	1.07	1.18
13	PI3 (GeneID 5266)	0.99	0.68
14	DDX50 (GeneID 79009)	1.07	0.95
15	SSX2IP (GeneID 117178)	0.92	0.68
16	CELSR3 (GeneID 1951)	0.7	0.62
17	TRPC6 (GeneID 7225)	1.31	1.31
18	TRIM39 (GeneID 56658)	0.96	0.94
19	KHDRBS2 (GeneID 202559)	1.27	0.76
20	NKAIN1 (GeneID 79570)	0.89	0.72
21	SPTBN2 (GeneID 6712)	0.93	0.8
22	DNASE1L3 (GeneID 1776)	0.86	0.74
23	DIS3 (GeneID 22894)	1.08	0.8
24	UBL4B (GeneID 164153)	0.84	0.87
25	SLC4A4 (GeneID 8671)	1.12	0.47
26	EAF2 (GeneID 55840)	1.11	1.04
27	DDI1 (GeneID 414301)	0.93	0.41
28	NEXN (GeneID 91624)	1.06	0.34
29	LGALS9B (GeneID 284194)	1.37	0.78
30	WDR13 (GeneID 64743)	1.17	0.7
31	RCAN2 (GeneID 10231)	1	0.42
32	ARF3 (GeneID 377)	0.82	0.67
33	ACOT1 (GeneID 641371)	0.9	0.85
34	FMNL1 (GeneID 752)	0.87	0.74
35	SULF1 (GeneID 23213)	0.92	0.88
36	PSG7 (GeneID 5676)	0.95	0.9
37	PERP (GeneID 64065)	1.84	0.68
38	TEX44 (GeneID 165100)	0.83	0.6
39	OSBPL9 (GeneID 114883)	1.1	0.8
40	ASH1L (GeneID 55870)	1.14	0.82
41	ZSCAN26 (GeneID 7741)	1.07	0.9
42	MYLK3 (GeneID 91807)	0.84	0.87
43	COG7 (GeneID 91949)	1.35	0.84
44	RBM33 (GeneID 155435)	1.1	0.89
45	VWC2 (GeneID 375567)	0.68	0.74
46	TMEM255A (GeneID 55026)	1.05	1.04
47	MOGS (GeneID 7841)	0.81	0.7
48	TRIM51BP (GeneID 399937)	0.95	0.9
49	ZMAT5 (GeneID 55954)	0.84	0.74
50	ADAMTSL4 (GeneID 54507)	1	0.98
51	NATD1 (GeneID 256302)	0.86	0.74
52	TMX3 (GeneID 54495)	0.97	0.98
53	ZNF571 (GeneID 51276)	1.09	0.86
54	HOOK3 (GeneID 84376)	0.67	0.6
55	NEURL2 (GeneID 140825)	1.08	0.84
56	SOFU1 (GeneID 135927)	0.92	0.76
57	REV1 (GeneID 51455)	1.05	1.03
58	GIMAP8 (GeneID 155038)	1.09	1.08
59	IFNAR1 (GeneID 3454)	1.09	1.01
60	ACTR5 (GeneID 79913)	1.28	1.04
61	THOC3 (GeneID 84321)	1.07	0.73
62	ADGRF4 (GeneID 221393)	1.33	0.88
63	LHX3 (GeneID 8022)	1.05	0.78
64	GATA2 (GeneID 2624)	0.88	0.44
65	THSD1 (GeneID 55901)	0.91	0.68
66	PIM1 (GeneID 5292)	0.89	0.68
67	LMNA (GeneID 4000)	1.13	0.86
68	CBLN1 (GeneID 869)	0.73	0.4

A few values from the entries so far.
Under “CDH1-null viability vs mock (fraction of mock)”, ZNF571 (GeneID 51276) shows 0.86
Entry for SCG5 (GeneID 6447) in “CDH1-null viability vs mock (fraction of mock)”: 1.17
PSG7 (GeneID 5676), CDH1-null viability vs mock (fraction of mock): 0.9
ADGRF4 (GeneID 221393), CDH1-null viability vs mock (fraction of mock) → 0.88
Under “CDH1-null / parental viability ratio”, GATA2 (GeneID 2624) is entered as 0.88
RBM33 (GeneID 155435), CDH1-null viability vs mock (fraction of mock): 0.89
